Measured values published in PubChem BioAssay AID248 (DTP/NCI, 2004).
The list is a part of this screen's results and no random one: it is rich in T/C values a quarter to a half above the control, in often repeated tests (any T/C) and in doses without a T/C. Other doses and runs of a compound stand elsewhere. T/C is the treated group as % of the vehicle group. Some doses have a count of surviving animals in place of a T/C: the source files T/C as zero there, which appears to mark a toxic dose or a test without result, not a measured value. Some doses without a T/C left all or most animals alive at the check, yet need not have been tolerated: survival well below the control is almost never listed, so the zero probably covers shortened survival too. Survivors were counted at the toxicity check, usually on the fifth day, unless a day is given; later deaths do not show. Schedule codes are those of the source, read here as Q, the interval in days (D) or hours (H), X, the number of doses. Some schedule codes hold Z or #, which are not explained here. Where survival is the endpoint, this PubChem deposit counts one and a half times the control or more as active, and values a quarter to a half above the control carry no call in these data; other NCI protocols may use other cut-offs. Some entries hold several experiments; the values are given in rising order.

Tested on: L1210 leukemia ip in BDF1 mice, survival T/C
Assay: NCI In Vivo Anticancer Drug Screen. Data for tumor model L1210 Leukemia (intraperitoneal) in B6D2F1 (BDF1) mice
Conditions: T/C endpoint: mean survival time, higher T/C = longer survival
[1] = dose: 100.0 mg/kg/injection, schedule: Q01DX001 (ip), vehicle: saline
[2] = dose: 400.0 mg/kg/injection, schedule: Q04DX003 (ip), vehicle: Klucel (hydroxypropylcellulose) (HPC)
[3] = dose: 50.0 mg/kg/injection, schedule: Q01DX009 (ip), vehicle: saline with Tween-80
[4] = dose: 200.0 mg/kg/injection, schedule: Q01DX001 (ip), vehicle: other
[5] = dose: 400.0 mg/kg/injection, schedule: Q01DX001 (ip), vehicle: other
[6] = dose: 400.0 mg/kg/injection, schedule: Q04DX003 (ip), vehicle: saline with Tween-80
[7] = dose: 200.0 mg/kg/injection, schedule: Q04DX003 (ip), vehicle: saline
[8] = dose: 400.0 mg/kg/injection, schedule: Q04DX003 (ip), vehicle: saline
[9] = dose: 400.0 mg/kg/injection, schedule: Q01DX001 (ip), vehicle: saline

Q: Which survivor count (dose: 38.0 mg/kg/injection, schedule: Q01DX001 (ip), vehicle: saline) does the source give for CC#C[P+](Cc1ccccc1)(c1ccccc1)c1ccccc1 here?
A: 3 of 6

Q: And the survivor count (dose: 75.0 mg/kg/injection, schedule: Q01DX001 (ip), vehicle: other)?
A: 0 of 6

Q: And the survivor count (dose: 150.0 mg/kg/injection, schedule: Q01DX001 (ip), vehicle: other)?
A: 0 of 6

Q: And the survivor count (dose: 300.0 mg/kg/injection, schedule: Q01DX001 (ip), vehicle: other)?
A: 0 of 6

Q: With CC(CNN=C(N)N)NN=C(N)N (configuration not stated) as the compound, how does the survivor count (dose: 240.0 mg/kg/injection, schedule: Q01DX Z (ip), vehicle: saline) read?
A: 2 of 6

Q: Which survivor count [1] does the source give for C/C(=N/NC(N)=S)c1ccco1 here?
A: 4 of 4

Q: How did the survivor count (dose: 400.0 mg/kg/injection, schedule: Q01DX009 (ip), vehicle: saline with Tween-80) turn out when O=C(Nc1coc2ccc(Cl)cc12)C1CC1 was run?
A: 2 of 6

Q: How did the survivor count [2] turn out when NC(Cc1ccccc1)C(=O)O (configuration not stated) was run?
A: 6 of 6

Q: What does the source list for S=c1c2[nH]cnc2ncn1C1CCCC1?
A: T/C (dose: 22.0 mg/kg/injection, schedule: Q01DX009 (ip), vehicle: saline with Tween-80): 125 % of control; survivor count (dose: 40.0 mg/kg/injection, schedule: Q01DX001 (ip), vehicle: other): 2 of 6; survivor count [3]: 1 of 6; survivor count (dose: 80.0 mg/kg/injection, schedule: Q01DX001 (ip), vehicle: other): 0 of 6; survivor count (dose: 100.0 mg/kg/injection, schedule: Q01DX001 (ip), vehicle: other): 0 of 6; survivor count [4]: 0 of 6; survivor count [5]: 0 of 6

Q: How did the survivor count [6] turn out when O=C(Nc1ccccc1-c1ccc([N+](=O)[O-])cc1)c1cc(Cl)cc(Cl)c1 was run?
A: 6 of 6

Q: With COc1cc2cc(-c3cc(OC)c(OC)c(OC)c3)c3c(c2cc1OC)CNC3 as the compound, how does the survivor count (dose: 200.0 mg/kg/injection, schedule: Q01DX009 (ip), vehicle: water) read?
A: 5 of 6

Q: And the survivor count (dose: 400.0 mg/kg/injection, schedule: Q01DX009 (ip), vehicle: water)?
A: 0 of 6

Q: Which results are given for CCN(CC)CCN(CCN(CC)CC)c1c(OC)cccc1OC?
A: survivor count (dose: 75.0 mg/kg/injection, schedule: Q01DX001 (ip), vehicle: acetone): 3 of 6; survivor count (dose: 150.0 mg/kg/injection, schedule: Q01DX001 (ip), vehicle: acetone): 0 of 6; survivor count (dose: 300.0 mg/kg/injection, schedule: Q01DX001 (ip), vehicle: acetone): 0 of 6

Q: What does the source list for CC(C)S(=O)(=O)/C=C\S(=O)(=O)C(C)C?
A: survivor count (dose: 12.5 mg/kg/injection, schedule: Q04DX003 (ip), vehicle: Klucel (hydroxypropylcellulose) (HPC)): 0 of 6; survivor count (dose: 25.0 mg/kg/injection, schedule: Q04DX003 (ip), vehicle: Klucel (hydroxypropylcellulose) (HPC)): 1 of 6; survivor count (dose: 50.0 mg/kg/injection, schedule: Q04DX003 (ip), vehicle: Klucel (hydroxypropylcellulose) (HPC)): 0 of 6; survivor count (dose: 100.0 mg/kg/injection, schedule: Q04DX003 (ip), vehicle: Klucel (hydroxypropylcellulose) (HPC)): 0 of 6; survivor count (dose: 200.0 mg/kg/injection, schedule: Q04DX003 (ip), vehicle: Klucel (hydroxypropylcellulose) (HPC)): 0 of 6; survivor count [2]: 0 of 6

Q: Which results are given for CC(C)N1CCOCC1?
A: survivor count (dose: 150.0 mg/kg/injection, schedule: Q01DX009 (ip), vehicle: saline with Tween-80): 2 of 6; survivor count (dose: 225.0 mg/kg/injection, schedule: Q01DX009 (ip), vehicle: saline with Tween-80): 0 of 6; survivor count (dose: 335.0 mg/kg/injection, schedule: Q01DX009 (ip), vehicle: saline with Tween-80): 0 of 6

Q: CC(C)(C)CC(C)(C)CC(C)(C)NCCCN was tested. Which survivor count [3] did it give?
A: 4 of 6

Q: What about the survivor count (dose: 100.0 mg/kg/injection, schedule: Q04DX003 (ip), vehicle: saline with Tween-80) of the same compound?
A: 0 of 6

Q: What about the survivor count (dose: 200.0 mg/kg/injection, schedule: Q04DX003 (ip), vehicle: saline with Tween-80) of the same compound?
A: 0 of 6

Q: And the survivor count [6]?
A: 0 of 6

Q: NC(N)=N/N=C/c1ccccc1O was tested. Which survivor count (dose: 63.0 mg/kg/injection, schedule: Q01DX Z (ip), vehicle: saline) did it give?
A: 6 of 6

Q: What about the survivor count (dose: 125.0 mg/kg/injection, schedule: Q01DX Z (ip), vehicle: saline) of the same compound?
A: 6 of 6

Q: How did the survivor count (dose: 400.0 mg/kg/injection, schedule: Q01DX009 (ip), vehicle: Klucel (hydroxypropylcellulose) (HPC)) turn out when O=S1(=O)C=C(Br)c2ccccc21 was run?
A: 0 of 6

Q: Which survivor count [7] does the source give for Nc1nc(N)c2nc(CN3CCCc4cc(C(=O)NC(CCC(=O)O)C(=O)O)ccc43)cnc2n1 (configuration not stated) here?
A: 6 of 6

Q: And the survivor count [8]?
A: 6 of 6

Q: With COc1cccc(CCNC(=O)CC#N)c1OC as the compound, how does the survivor count (dose: 400.0 mg/kg/injection, schedule: Q01DX009 (ip), vehicle: saline) read?
A: 5 of 6

Q: For O=c1c2ccccc2n2nnc3cccc1c32, which survivor count (dose: 200.0 mg/kg/injection, schedule: Q01DX001 (ip), vehicle: Klucel (hydroxypropylcellulose) (HPC)) is on record?
A: 6 of 6

Q: And the survivor count [2]?
A: 6 of 6

Q: Which survivor count (dose: 100.0 mg/kg/injection, schedule: Q01DX009 (ip), vehicle: saline) does the source give for CC(CN1CCCC1)C(O)(Cc1ccccc1)c1ccccc1 (configuration not stated) here?
A: 1 of 6

Q: What about the survivor count [7] of the same compound?
A: 1 of 6

Q: And the survivor count [8]?
A: 0 of 6

Q: How did the survivor count (dose: 150.0 mg/kg/injection, schedule: Q01DX001 (ip), vehicle: saline) turn out when C[N+](C)(CCl)C1CCCCC1 was run?
A: 0 of 6

Q: And the survivor count (dose: 300.0 mg/kg/injection, schedule: Q01DX001 (ip), vehicle: saline)?
A: 0 of 6

Q: How did the survivor count (dose: 200.0 mg/kg/injection, schedule: Q01DX009 (ip), vehicle: Klucel (hydroxypropylcellulose) (HPC)) turn out when COc1ccc(OC)c(NC(=O)Oc2ccccc2F)c1 was run?
A: 3 of 3

Q: For CC1CCC(C)C([N+](C)(C)C)C1 (configuration not stated), which survivor count [1] is on record?
A: 1 of 6

Q: And the survivor count (dose: 115.0 mg/kg/injection, schedule: Q04DX003 (ip), vehicle: saline)?
A: 4 of 6

Q: And the survivor count (dose: 200.0 mg/kg/injection, schedule: Q01DX001 (ip), vehicle: saline)?
A: 0 of 6

Q: What about the survivor count [9] of the same compound?
A: 0 of 6

Q: Which results are given for OCCC(c1ccc(Cl)cc1)N1CCCCC1 (configuration not stated)?
A: survivor count [4]: 2 of 4; survivor count [5]: 1 of 4

Q: O=C1OC(=O)C2C3C=CC(O3)C12 (configuration not stated) was tested. Which survivor count [3] did it give?
A: 0 of 6

Q: What about the survivor count (dose: 100.0 mg/kg/injection, schedule: Q01DX009 (ip), vehicle: saline with Tween-80) of the same compound?
A: 3 of 3

Q: And the survivor count (dose: 100.0 mg/kg/injection, schedule: Q04DX003 (ip), vehicle: saline)?
A: 2 of 6

Q: What about the survivor count (dose: 200.0 mg/kg/injection, schedule: Q01DX009 (ip), vehicle: saline with Tween-80) of the same compound?
A: 0 of 3

Q: And the survivor count [7]?
A: 0 of 6

Q: And the survivor count [8]?
A: 0 of 6

Q: For CC(CCl)N(CCCl)Cc1cccc(Nc2ncnc3nc[nH]c23)c1 (configuration not stated), which T/C (dose: 10.0 mg/kg/injection, schedule: Q01DX001 (ip), vehicle: saline) is on record?
A: 126 and 132 % of control

Q: What about the T/C (dose: 15.0 mg/kg/injection, schedule: Q01DX001 (ip), vehicle: saline) of the same compound?
A: 135 % of control

Q: And the survivor count (dose: 40.0 mg/kg/injection, schedule: Q01DX001 (ip), vehicle: saline)?
A: 0 of 4

Q: What about the survivor count (dose: 50.0 mg/kg/injection, schedule: Q01DX001 (ip), vehicle: carboxymethylcellulose (CMC)) of the same compound?
A: 0 of 4

Q: And the survivor count (dose: 80.0 mg/kg/injection, schedule: Q01DX001 (ip), vehicle: saline)?
A: 1 of 4

Q: And the survivor count (dose: 100.0 mg/kg/injection, schedule: Q01DX001 (ip), vehicle: carboxymethylcellulose (CMC))?
A: 0 of 4

Q: What about the survivor count (dose: 200.0 mg/kg/injection, schedule: Q01DX001 (ip), vehicle: carboxymethylcellulose (CMC)) of the same compound?
A: 0 of 4

Q: And the survivor count (dose: 400.0 mg/kg/injection, schedule: Q01DX001 (ip), vehicle: carboxymethylcellulose (CMC))?
A: 0 of 4

Q: With CCOP(=O)(OCC)c1ccc([N+](=O)[O-])cc1 as the compound, how does the survivor count [9] read?
A: 5 of 6

Q: Which results are given for CCS(=O)(=O)/C=C/c1ccncc1?
A: survivor count (dose: 200.0 mg/kg/injection, schedule: Q04DX002 (ip), vehicle: saline): 0 of 3; survivor count (dose: 400.0 mg/kg/injection, schedule: Q04DX002 (ip), vehicle: saline): 0 of 3

Q: Cc1cc([N+](=O)[O-])c([N+](=O)[O-])cc1Cl was tested. Which survivor count (dose: 400.0 mg/kg/injection, schedule: Q01DX001 (ip), vehicle: Klucel (hydroxypropylcellulose) (HPC)) did it give?
A: 2 of 6
